Data as given in article doi:10.1101/785154.
Like-named read-outs stand apart in the source and are kept apart here. No constants are given. Whether binding was seen depends on the method and setting. Binding seen in cells or lysates may run through a third protein. Some results given as binding are weak or reduced against the parent protein; the word gives no strength. For some of these results: Sequences can lack the tags named with a protein.

Amino acid sequences for entries named in this document (tags omitted). A change or cut given only in a name is not applied to a line headed by its entry.
UniProt P35241: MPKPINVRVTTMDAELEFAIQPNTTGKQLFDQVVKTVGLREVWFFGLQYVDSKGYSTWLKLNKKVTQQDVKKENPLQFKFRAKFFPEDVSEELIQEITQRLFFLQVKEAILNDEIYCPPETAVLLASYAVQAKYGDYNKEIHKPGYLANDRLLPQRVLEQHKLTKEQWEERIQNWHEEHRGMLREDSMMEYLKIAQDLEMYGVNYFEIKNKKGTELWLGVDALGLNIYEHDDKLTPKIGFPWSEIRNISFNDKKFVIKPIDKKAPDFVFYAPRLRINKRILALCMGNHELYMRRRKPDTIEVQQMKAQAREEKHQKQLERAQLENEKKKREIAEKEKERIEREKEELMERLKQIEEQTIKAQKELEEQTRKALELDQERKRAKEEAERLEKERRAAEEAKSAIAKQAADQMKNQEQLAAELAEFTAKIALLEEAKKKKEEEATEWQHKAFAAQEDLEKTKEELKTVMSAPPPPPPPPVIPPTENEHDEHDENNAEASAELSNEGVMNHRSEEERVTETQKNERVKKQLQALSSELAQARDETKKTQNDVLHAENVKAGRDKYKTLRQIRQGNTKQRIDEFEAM
UniProt P26043: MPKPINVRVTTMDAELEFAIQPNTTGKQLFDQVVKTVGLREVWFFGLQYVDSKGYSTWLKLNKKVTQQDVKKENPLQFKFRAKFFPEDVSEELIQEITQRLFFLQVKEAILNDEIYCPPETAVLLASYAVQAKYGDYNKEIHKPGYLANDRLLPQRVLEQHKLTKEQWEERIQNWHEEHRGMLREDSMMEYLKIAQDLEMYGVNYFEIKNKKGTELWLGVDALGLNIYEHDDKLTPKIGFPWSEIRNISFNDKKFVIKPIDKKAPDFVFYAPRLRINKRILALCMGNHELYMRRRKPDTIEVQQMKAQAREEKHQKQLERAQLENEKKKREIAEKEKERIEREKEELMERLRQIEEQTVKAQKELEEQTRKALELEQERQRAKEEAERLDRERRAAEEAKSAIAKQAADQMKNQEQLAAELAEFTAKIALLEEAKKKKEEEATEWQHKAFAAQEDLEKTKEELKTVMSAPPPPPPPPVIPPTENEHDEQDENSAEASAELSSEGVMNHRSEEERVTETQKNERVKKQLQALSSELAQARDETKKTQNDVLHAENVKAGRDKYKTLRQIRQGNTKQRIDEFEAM

Legend:
[1] = target: T1, Prom1-Flag (full-length human Prom1) (human) (UniProt O43490); assay: co-IP
T1 sequence: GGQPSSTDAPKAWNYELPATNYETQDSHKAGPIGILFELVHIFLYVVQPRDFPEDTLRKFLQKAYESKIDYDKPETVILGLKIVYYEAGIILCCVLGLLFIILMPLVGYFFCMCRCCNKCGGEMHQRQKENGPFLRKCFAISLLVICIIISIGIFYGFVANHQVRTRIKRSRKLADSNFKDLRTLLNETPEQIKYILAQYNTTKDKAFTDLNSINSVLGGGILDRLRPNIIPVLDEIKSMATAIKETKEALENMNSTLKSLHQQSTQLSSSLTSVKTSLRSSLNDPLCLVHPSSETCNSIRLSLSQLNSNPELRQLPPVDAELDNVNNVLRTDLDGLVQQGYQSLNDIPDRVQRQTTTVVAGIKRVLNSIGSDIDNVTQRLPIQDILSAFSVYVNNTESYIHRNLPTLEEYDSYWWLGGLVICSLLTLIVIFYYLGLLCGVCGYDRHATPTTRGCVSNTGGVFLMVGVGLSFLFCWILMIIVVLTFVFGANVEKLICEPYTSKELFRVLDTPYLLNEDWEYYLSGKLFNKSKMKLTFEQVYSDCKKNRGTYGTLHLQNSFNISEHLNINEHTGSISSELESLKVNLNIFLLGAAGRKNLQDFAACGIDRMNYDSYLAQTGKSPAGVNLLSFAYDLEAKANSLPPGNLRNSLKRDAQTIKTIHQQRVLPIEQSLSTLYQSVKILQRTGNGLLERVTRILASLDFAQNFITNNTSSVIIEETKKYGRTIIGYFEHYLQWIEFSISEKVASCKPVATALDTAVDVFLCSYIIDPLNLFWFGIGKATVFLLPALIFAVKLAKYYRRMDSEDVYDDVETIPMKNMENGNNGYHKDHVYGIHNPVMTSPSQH

[2] = target: T1, Prom1-Flag (full-length human Prom1) (human); assay: co-IP; remark: listed apart in the source
[3] = target: T2, Prominin-1 (Prom1), endogenous in primary mouse hepatocytes (mouse (endogenous in primary hepatocytes)) (UniProt O54990); assay: proximity ligation
T2 sequence: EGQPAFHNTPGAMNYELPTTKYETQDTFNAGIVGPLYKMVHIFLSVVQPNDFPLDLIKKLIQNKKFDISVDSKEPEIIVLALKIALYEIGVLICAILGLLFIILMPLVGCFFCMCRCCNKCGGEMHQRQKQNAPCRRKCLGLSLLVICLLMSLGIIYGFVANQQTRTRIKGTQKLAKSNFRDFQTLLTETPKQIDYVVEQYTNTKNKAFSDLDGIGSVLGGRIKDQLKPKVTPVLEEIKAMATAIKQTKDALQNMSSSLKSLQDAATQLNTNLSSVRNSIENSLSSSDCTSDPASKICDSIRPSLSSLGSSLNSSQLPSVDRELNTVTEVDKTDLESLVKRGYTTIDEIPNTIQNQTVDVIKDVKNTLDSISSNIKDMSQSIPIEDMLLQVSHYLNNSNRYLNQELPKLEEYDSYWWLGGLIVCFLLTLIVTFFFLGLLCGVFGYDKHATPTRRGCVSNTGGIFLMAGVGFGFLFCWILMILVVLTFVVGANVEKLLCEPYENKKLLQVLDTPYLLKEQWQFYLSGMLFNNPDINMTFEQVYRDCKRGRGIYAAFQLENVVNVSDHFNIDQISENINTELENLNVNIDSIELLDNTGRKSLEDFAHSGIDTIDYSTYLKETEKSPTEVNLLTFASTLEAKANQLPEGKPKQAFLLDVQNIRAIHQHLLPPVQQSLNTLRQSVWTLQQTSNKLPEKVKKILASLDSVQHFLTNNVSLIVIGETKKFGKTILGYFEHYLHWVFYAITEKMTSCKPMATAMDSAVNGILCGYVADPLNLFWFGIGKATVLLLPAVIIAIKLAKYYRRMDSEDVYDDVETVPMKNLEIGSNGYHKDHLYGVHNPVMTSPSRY

[4] = target: T3, Prom1 expressed from adenovirus (Ad-Prom1) in Prom1-/- primary mouse hepatocytes (UniProt O43490); assay: proximity ligation
T3 sequence: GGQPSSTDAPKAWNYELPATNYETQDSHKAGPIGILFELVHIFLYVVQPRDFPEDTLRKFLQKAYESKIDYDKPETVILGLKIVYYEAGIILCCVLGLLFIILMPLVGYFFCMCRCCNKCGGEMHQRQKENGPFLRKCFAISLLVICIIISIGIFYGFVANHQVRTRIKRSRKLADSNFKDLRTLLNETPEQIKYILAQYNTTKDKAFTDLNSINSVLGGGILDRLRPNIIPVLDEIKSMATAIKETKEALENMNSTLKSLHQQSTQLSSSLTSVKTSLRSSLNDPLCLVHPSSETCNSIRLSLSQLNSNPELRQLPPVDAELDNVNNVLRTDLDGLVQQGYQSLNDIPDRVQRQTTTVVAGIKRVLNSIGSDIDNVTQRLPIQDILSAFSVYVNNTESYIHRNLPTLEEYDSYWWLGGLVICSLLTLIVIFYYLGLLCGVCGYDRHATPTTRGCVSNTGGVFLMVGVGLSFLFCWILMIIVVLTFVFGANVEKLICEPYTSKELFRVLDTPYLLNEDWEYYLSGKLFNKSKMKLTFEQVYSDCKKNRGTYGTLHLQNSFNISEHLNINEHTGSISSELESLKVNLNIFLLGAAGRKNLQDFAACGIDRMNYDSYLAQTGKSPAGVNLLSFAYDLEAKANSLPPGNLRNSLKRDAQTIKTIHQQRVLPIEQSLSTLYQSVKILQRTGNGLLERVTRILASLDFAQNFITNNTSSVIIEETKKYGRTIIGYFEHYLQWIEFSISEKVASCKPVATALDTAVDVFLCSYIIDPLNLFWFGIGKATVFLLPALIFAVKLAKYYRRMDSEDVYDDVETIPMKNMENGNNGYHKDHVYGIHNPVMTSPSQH

[5] = target: T2, Prominin-1 (Prom1), endogenous in primary mouse hepatocytes (mouse (endogenous in primary hepatocytes)); assay: co-IP
[6] = target: Myc-radixin (full-length human radixin) (human) (UniProt P35241); assay: co-IP

## Myc-radixin (full-length human radixin) (from UniProt P35241 1-583)
[1]
  binding: binds
[2]
  binding: binds

## Myc-FERM (FERM domain of radixin, 1-310) (from UniProt P35241 1-310) (domain or fragment)
[2]
  binding: binds

## Radixin, endogenous in primary mouse hepatocytes (from UniProt P26043 1-583)
[3]
  binding: binds
[4]
  binding: binds
[5]
  binding: binds

B1: Prom1-Flag (full-length human Prom1) (protein, UniProt O43490 20-865)
chain: GGQPSSTDAPKAWNYELPATNYETQDSHKAGPIGILFELVHIFLYVVQPRDFPEDTLRKFLQKAYESKIDYDKPETVILGLKIVYYEAGIILCCVLGLLFIILMPLVGYFFCMCRCCNKCGGEMHQRQKENGPFLRKCFAISLLVICIIISIGIFYGFVANHQVRTRIKRSRKLADSNFKDLRTLLNETPEQIKYILAQYNTTKDKAFTDLNSINSVLGGGILDRLRPNIIPVLDEIKSMATAIKETKEALENMNSTLKSLHQQSTQLSSSLTSVKTSLRSSLNDPLCLVHPSSETCNSIRLSLSQLNSNPELRQLPPVDAELDNVNNVLRTDLDGLVQQGYQSLNDIPDRVQRQTTTVVAGIKRVLNSIGSDIDNVTQRLPIQDILSAFSVYVNNTESYIHRNLPTLEEYDSYWWLGGLVICSLLTLIVIFYYLGLLCGVCGYDRHATPTTRGCVSNTGGVFLMVGVGLSFLFCWILMIIVVLTFVFGANVEKLICEPYTSKELFRVLDTPYLLNEDWEYYLSGKLFNKSKMKLTFEQVYSDCKKNRGTYGTLHLQNSFNISEHLNINEHTGSISSELESLKVNLNIFLLGAAGRKNLQDFAACGIDRMNYDSYLAQTGKSPAGVNLLSFAYDLEAKANSLPPGNLRNSLKRDAQTIKTIHQQRVLPIEQSLSTLYQSVKILQRTGNGLLERVTRILASLDFAQNFITNNTSSVIIEETKKYGRTIIGYFEHYLQWIEFSISEKVASCKPVATALDTAVDVFLCSYIIDPLNLFWFGIGKATVFLLPALIFAVKLAKYYRRMDSEDVYDDVETIPMKNMENGNNGYHKDHVYGIHNPVMTSPSQH
[6]
  binding: binds
